From article doi:10.1101/423210
No constants are given. Whether binding was seen depends on the method and setting. Binding seen in cells or lysates may run through a third protein. Some entries that bind do so weakly or less than the wild type.

Amino acid sequences for entries named in this document (tags omitted).
UniProt P11147: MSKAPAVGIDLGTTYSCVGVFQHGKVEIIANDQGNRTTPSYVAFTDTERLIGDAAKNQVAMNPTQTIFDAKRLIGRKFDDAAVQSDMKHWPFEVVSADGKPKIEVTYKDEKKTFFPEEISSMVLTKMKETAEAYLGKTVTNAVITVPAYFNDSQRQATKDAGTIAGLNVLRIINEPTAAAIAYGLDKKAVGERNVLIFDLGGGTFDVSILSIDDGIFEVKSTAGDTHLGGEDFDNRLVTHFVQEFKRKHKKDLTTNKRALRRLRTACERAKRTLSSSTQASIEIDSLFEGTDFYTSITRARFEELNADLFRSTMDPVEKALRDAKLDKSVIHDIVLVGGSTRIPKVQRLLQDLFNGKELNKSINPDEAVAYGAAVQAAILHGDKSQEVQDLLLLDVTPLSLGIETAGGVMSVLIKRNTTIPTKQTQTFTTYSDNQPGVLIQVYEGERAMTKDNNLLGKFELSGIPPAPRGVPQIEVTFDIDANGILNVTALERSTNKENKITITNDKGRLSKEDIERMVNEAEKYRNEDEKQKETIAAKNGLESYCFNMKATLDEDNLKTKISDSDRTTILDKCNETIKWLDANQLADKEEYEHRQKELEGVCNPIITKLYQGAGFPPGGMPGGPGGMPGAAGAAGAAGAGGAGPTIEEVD
UniProt P02828: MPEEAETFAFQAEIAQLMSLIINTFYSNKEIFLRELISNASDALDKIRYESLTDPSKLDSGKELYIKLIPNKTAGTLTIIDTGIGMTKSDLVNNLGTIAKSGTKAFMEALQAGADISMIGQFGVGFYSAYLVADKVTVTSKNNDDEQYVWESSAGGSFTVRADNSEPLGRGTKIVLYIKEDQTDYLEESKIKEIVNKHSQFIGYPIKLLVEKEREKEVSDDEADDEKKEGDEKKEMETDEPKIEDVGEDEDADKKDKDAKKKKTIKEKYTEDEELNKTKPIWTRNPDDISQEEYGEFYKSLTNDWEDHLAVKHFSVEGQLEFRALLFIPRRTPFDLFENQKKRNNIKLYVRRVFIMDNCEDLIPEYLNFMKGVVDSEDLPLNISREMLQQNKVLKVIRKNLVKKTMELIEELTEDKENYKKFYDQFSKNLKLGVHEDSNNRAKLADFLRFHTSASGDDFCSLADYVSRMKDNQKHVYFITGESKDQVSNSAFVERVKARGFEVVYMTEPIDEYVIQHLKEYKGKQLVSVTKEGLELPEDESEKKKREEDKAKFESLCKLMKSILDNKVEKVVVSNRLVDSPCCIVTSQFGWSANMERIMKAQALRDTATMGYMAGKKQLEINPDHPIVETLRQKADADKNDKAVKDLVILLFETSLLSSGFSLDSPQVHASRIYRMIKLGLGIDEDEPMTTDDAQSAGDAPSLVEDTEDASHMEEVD

T1: Ago3 (Drosophila melanogaster (endogenous in ovaries)) (UniProt Q7PLK0)
T1 sequence: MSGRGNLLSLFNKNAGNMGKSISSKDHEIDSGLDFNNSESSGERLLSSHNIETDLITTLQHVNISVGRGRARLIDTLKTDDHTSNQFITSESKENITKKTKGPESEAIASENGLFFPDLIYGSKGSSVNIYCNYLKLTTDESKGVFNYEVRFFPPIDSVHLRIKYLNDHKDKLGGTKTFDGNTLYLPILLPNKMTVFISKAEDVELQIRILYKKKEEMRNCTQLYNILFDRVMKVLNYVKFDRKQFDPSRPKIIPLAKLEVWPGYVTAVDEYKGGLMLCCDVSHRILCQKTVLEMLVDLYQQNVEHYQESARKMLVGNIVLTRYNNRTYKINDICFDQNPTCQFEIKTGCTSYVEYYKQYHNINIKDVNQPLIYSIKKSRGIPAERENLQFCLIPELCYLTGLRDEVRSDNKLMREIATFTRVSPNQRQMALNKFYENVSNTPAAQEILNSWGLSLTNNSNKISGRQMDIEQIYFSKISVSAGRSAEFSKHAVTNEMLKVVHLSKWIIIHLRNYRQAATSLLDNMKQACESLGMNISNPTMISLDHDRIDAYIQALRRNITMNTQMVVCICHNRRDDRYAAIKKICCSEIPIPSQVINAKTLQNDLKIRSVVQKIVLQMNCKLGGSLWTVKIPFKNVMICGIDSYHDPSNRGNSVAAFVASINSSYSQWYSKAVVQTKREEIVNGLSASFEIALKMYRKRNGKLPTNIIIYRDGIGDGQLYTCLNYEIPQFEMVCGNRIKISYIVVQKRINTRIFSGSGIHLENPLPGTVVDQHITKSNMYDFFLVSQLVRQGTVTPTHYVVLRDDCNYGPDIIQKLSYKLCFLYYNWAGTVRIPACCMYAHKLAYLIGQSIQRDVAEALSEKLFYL

T2: Ago3 (Drosophila melanogaster (endogenous in ovaries)), Q7PLK0
T2 chain: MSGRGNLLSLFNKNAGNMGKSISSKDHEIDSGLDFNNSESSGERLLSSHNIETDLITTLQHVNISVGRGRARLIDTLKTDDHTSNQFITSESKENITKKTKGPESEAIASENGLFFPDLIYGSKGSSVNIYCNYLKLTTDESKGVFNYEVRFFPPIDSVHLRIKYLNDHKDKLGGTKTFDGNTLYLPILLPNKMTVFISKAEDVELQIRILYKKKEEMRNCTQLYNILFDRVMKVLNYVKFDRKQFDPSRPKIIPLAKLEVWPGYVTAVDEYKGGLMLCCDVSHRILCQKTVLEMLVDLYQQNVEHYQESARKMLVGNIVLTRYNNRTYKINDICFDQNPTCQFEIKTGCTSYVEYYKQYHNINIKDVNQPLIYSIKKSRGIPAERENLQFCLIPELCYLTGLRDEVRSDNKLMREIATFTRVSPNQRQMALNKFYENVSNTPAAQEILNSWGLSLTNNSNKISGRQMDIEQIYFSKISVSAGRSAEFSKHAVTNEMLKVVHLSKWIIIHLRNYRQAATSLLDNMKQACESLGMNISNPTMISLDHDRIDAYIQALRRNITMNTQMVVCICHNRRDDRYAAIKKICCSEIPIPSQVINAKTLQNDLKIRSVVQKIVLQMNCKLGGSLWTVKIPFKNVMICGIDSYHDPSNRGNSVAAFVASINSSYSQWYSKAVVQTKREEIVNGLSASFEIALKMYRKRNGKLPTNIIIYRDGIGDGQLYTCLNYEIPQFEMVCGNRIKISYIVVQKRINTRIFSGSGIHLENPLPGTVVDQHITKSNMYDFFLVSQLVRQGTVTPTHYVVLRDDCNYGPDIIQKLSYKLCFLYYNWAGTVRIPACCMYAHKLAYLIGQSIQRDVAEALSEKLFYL


Assays:
[1] = target: T1, Ago3 (Drosophila melanogaster (endogenous in ovaries)); experiment: co-IP
[2] = target: T2, Ago3 (Drosophila melanogaster …); experiment: co-IP; conditions: remark: other sources report otherwise

| Molecule | binding [1] | binding [2] |
| --- | --- | --- |
| dFKBP59 (protein, UniProt Q9VL78 1-439) MPEGNKIDLSGDGGVLKEILKEGTGTETPHSGCTVSLHYTGRLVDGTEFDSSLSRNEPFEFSLGKGNVIKAFDMGVATMKLGERCFLTCAPNYAYGAAGSPPAIPPDATLIFELEMLGWKGEDLSPNQDGSIDRTILEASDKKRTPSDGAFVKAHISGSFEGRVFEDRDVEFDYGEGKAIGIIDGVEIALEKMNVGETSRIKIQAKYAFGAKGNEEFKIPPNATVEYTVKLVDCGKGLEEWKLSDEERLAEAKVYKEKGTNYFKKENWALAIKMYTKCKNILPTTVHTNEEVKKIKVATHSNIALCHQKSNDHFEAKQECNEVLALDKNNVKALYRRGQCNLTINELEDALEDFQKVIQLEPGNKAAANQVIICKQKLKESKNKEKKLYANMFTKLAANDKETEPPRETDVLSKCGEWSEEDAKREAELTLERDNIIMI | binds |  |
| Aubergine, O76922 1-866 (protein) MNLPPNPVIARGRGRGRKPNNVEANRGFAPSLGQKSDPSHSEGNQASGGNGGGGDAQVGPSIEKSSLSAVQMHKSEGDPRGSVRGRRLITDLVYSRPPGMTSKKGVVGTHITVQANYFKVLKRPNWTIYQYRVDFTPDVEATRLRRSFLYEHKGILGGYIFDGTNMFCINQFKAVQDSPYVLELVTKSRAGENIEIKIKAVGSVQSTDAEQFQVLNLILRRAMEGLDLKLVSRYYYDPQAKINLENFRMQLWPGYQTSIRQHENDILLCSEICHKVMRTETLYNILSDAIRDSDDYQSTFKRAVMGMVILTDYNNKTYRIDDVDFQSTPLCKFKTNDGEISYVDYYKKRYNIIIRDLKQPLVMSRPTDKNIRGGNDQAIMIIPELARATGMTDAMRADFRTLRAMSEHTRLNPDRRIERLRMFNKRLKSCKQSVETLKSWNIELDSALVEIPARVLPPEKILFGNQKIFVCDARADWTNEFRTCSMFKNVHINRWYVITPSRNLRETQEFVQMCIRTASSMKMNICNPIYEEIPDDRNGTYSQAIDNAAANDPQIVMVVMRSPNEEKYSCIKKRTCVDRPVPSQVVTLKVIAPRQQKPTGLMSIATKVVIQMNAKLMGAPWQVVIPLHGLMTVGFDVCHSPKNKNKSYGAFVATMDQKESFRYFSTVNEHIKGQELSEQMSVNMACALRSYQEQHRSLPERILFFRDGVGDGQLYQVVNSEVNTLKDRLDEIYKSAGKQEGCRMTFIIVSKRINSRYFTGHRNPVPGTVVDDVITLPERYDFFLVSQAVRIGTVSPTSYNVISDNMGLNADKLQMLSYKMTHMYYNYSGTIRVPAVCHYAHKLAFLVAESINRAPSAGLQNQLYFL |  | no binding |

Results, then the molecule that gave them:

| binding [1] | binding [2] | Molecule |
| --- | --- | --- |
| binds |  | Hsc70-4 (from UniProt P11147 1-651) |
| binds |  | Hsp90 (from UniProt P02828 1-717) |
